Paper PMC10892618
These are yes or no findings as the source states them, for the method shown. In cells and extracts the contact can be indirect. Some binding calls cover weakened binding; strength is not graded here. For part of these data: Tags and fused reporters may be left off the sequences shown.

The chains behind the UniProt entries cited, without tags or fusion partners.
UniProt P16403: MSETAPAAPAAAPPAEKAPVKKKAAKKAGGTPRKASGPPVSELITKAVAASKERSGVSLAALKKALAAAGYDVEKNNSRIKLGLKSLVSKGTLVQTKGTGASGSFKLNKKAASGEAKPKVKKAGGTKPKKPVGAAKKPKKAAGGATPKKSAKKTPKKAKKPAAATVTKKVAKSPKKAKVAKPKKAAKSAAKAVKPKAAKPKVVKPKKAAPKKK

B1: Flag-tagged MDA5 (protein, UniProt Q9BYX4 1-1025)
chain: MSNGYSTDENFRYLISCFRARVKMYIQVEPVLDYLTFLPAEVKEQIQRTVATSGNMQAVELLLSTLEKGVWHLGWTREFVEALRRTGSPLAARYMNPELTDLPSPSFENAHDEYLQLLNLLQPTLVDKLLVRDVLDKCMEEELLTIEDRNRIAAAENNGNESGVRELLKRIVQKENWFSAFLNVLRQTGNNELVQELTGSDCSESNAEIENLSQVDGPQVEEQLLSTTVQPNLEKEVWGMENNSSESSFADSSVVSESDTSLAEGSVSCLDESLGHNSNMGSDSGTMGSDSDEENVAARASPEPELQLRPYQMEVAQPALEGKNIIICLPTGSGKTRVAVYIAKDHLDKKKKASEPGKVIVLVNKVLLVEQLFRKEFQPFLKKWYRVIGLSGDTQLKISFPEVVKSCDIIISTAQILENSLLNLENGEDAGVQLSDFSLIIIDECHHTNKEAVYNNIMRHYLMQKLKNNRLKKENKPVIPLPQILGLTASPGVGGATKQAKAEEHILKLCANLDAFTIKTVKENLDQLKNQIQEPCKKFAIADATREDPFKEKLLEIMTRIQTYCQMSPMSDFGTQPYEQWAIQMEKKAAKEGNRKERVCAEHLRKYNEALQINDTIRMIDAYTHLETFYNEEKDKKFAVIEDDSDEGGDDEYCDGDEDEDDLKKPLKLDETDRFLMTLFFENNKMLKRLAENPEYENEKLTKLRNTIMEQYTRTEESARGIIFTKTRQSAYALSQWITENEKFAEVGVKAHHLIGAGHSSEFKPMTQNEQKEVISKFRTGKINLLIATTVAEEGLDIKECNIVIRYGLVTNEIAMVQARGRARADESTYVLVAHSGSGVIEHETVNDFREKMMYKAIHCVQNMKPEEYAHKILELQMQSIMEKKMKTKRNIAKHYKNNPSLITFLCKNCSVLACSGEDIHVIEKMHHVNMTPEFKELYIVRENKALQKKCADYQINGEIICKCGQAWGTMMVHKGLDLPCLKIRNFVVVFKNNSTKKQYKKWVELPITFPNLDYSECCLFSDED
B2: endogenous IRF3 (protein, UniProt Q14653 1-427)
chain: MGTPKPRILPWLVSQLDLGQLEGVAWVNKSRTRFRIPWKHGLRQDAQQEDFGIFQAWAEATGAYVPGRDKPDLPTWKRNFRSALNRKEGLRLAEDRSKDPHDPHKIYEFVNSGVGDFSQPDTSPDTNGGGSTSDTQEDILDELLGNMVLAPLPDPGPPSLAVAPEPCPQPLRSPSLDNPTPFPNLGPSENPLKRLLVPGEEWEFEVTAFYRGRQVFQQTISCPEGLRLVGSEVGDRTLPGWPVTLPDPGMSLTDRGVMSYVRHVLSCLGGGLALWRAGQWLWAQRLGHCHTYWAVSEELLPNSGHGPDGEVPKDKEGGVFDLGPFIVDLITFTEGSGRSPRYALWFCVGESWPQDQPWTKRLVMVKVVPTCLRALVEMARVGGASSLENTVDLHISNSHPLSLTSDQYKAYLQDLVEGMDFQGPGES
B3: endogenous MDA5 (protein, UniProt Q9BYX4 1-1025)
chain: B1 chain
B4: Flag-tagged TBK1 (protein, UniProt Q9UHD2 1-729)
chain: MQSTSNHLWLLSDILGQGATANVFRGRHKKTGDLFAIKVFNNISFLRPVDVQMREFEVLKKLNHKNIVKLFAIEEETTTRHKVLIMEFCPCGSLYTVLEEPSNAYGLPESEFLIVLRDVVGGMNHLRENGIVHRDIKPGNIMRVIGEDGQSVYKLTDFGAARELEDDEQFVSLYGTEEYLHPDMYERAVLRKDHQKKYGATVDLWSIGVTFYHAATGSLPFRPFEGPRRNKEVMYKIITGKPSGAISGVQKAENGPIDWSGDMPVSCSLSRGLQVLLTPVLANILEADQEKCWGFDQFFAETSDILHRMVIHVFSLQQMTAHKIYIHSYNTATIFHELVYKQTKIISSNQELIYEGRRLVLEPGRLAQHFPKTTEENPIFVVSREPLNTIGLIYEKISLPKVHPRYDLDGDASMAKAITGVVCYACRIASTLLLYQELMRKGIRWLIELIKDDYNETVHKKTEVVITLDFCIRNIEKTVKVYEKLMKINLEAAELGEISDIHTKLLRLSSSQGTIETSLQDIDSRLSPGGSLADAWAHQEGTHPKDRNVEKLQVLLNCMTEIYYQFKKDKAERRLAYNEEQIHKFDKQKLYYHATKAMTHFTDECVKKYEAFLNKSEEWIRKMLHLRKQLLSLTNQCFDIEEEVSKYQEYTNELQETLPQKMFTASSGIKHTMTPIYPSSNTLVEMTLGMKKLKEEMEGVVKELAENNHILERFGSLTMDGGLRNVDCL

Experiments:
[1] = molecular target: Myc-tagged histone H1.2 (UniProt P16403); test: co-IP; HEK293T co-transfected with pCMV-Myc-H1.2 and a pCMV-Flag plasmid for 36 h; RIPA lysate; H1.2 as the precipitated protein; Protein G Agarose; western blotting
[2] = molecular target: Myc-tagged histone H1.2 (UniProt P16403); test: co-IP
[3] = molecular target: endogenous histone H1.2 (human (endogenous in HEK293T)) (UniProt P16403); test: co-IP

Binder | binding [1] | binding [2] | binding [3]
B1 | binds |  | 
B2 |  | binds | binds
B3 |  | binds | binds
B4 | no binding |  | 
